The subject of assay [1] is HCoV-OC43. Also noted: species or system RD; HTS, protection from HCoV-OC43 induced cell death, luminescent cell viability (CellCounting-Lite 2.0), inhibition rate. To be noted: 24 h, 10 µM; inhibitor.
Assay [2] relates to HCoV-229E. Also noted: species or system Huh-7; HTS, protection from HCoV-229E induced cell death, luminescent cell viability (CellCounting-Lite 2.0), inhibition rate. Conditions: 24 h, 10 µM; inhibitor.

The structures appear in SMILES notation.

`CN[C@H]1CCc2cc(OC)c(OC)c(OC)c2-c2ccc(OC)c(=O)cc21` [Colcemid]: the “OC43 Inhibition rate” value in assay [1] is 1.5. Besides, in assay [2], the “229E Inhibition rate” value is 26.8.

For the origin of these results see PMC12431657, “Discovery and mechanistic insights of dibenzoylmethane as a broad spectrum inhibitor of coronavirus” (PLOS Pathogens, 2025).
